Screening data, single-dose tests

Amino acid sequences for entries named in this document (tags omitted). Residues count along the entry.
UniProt I6X8D2, whole entry: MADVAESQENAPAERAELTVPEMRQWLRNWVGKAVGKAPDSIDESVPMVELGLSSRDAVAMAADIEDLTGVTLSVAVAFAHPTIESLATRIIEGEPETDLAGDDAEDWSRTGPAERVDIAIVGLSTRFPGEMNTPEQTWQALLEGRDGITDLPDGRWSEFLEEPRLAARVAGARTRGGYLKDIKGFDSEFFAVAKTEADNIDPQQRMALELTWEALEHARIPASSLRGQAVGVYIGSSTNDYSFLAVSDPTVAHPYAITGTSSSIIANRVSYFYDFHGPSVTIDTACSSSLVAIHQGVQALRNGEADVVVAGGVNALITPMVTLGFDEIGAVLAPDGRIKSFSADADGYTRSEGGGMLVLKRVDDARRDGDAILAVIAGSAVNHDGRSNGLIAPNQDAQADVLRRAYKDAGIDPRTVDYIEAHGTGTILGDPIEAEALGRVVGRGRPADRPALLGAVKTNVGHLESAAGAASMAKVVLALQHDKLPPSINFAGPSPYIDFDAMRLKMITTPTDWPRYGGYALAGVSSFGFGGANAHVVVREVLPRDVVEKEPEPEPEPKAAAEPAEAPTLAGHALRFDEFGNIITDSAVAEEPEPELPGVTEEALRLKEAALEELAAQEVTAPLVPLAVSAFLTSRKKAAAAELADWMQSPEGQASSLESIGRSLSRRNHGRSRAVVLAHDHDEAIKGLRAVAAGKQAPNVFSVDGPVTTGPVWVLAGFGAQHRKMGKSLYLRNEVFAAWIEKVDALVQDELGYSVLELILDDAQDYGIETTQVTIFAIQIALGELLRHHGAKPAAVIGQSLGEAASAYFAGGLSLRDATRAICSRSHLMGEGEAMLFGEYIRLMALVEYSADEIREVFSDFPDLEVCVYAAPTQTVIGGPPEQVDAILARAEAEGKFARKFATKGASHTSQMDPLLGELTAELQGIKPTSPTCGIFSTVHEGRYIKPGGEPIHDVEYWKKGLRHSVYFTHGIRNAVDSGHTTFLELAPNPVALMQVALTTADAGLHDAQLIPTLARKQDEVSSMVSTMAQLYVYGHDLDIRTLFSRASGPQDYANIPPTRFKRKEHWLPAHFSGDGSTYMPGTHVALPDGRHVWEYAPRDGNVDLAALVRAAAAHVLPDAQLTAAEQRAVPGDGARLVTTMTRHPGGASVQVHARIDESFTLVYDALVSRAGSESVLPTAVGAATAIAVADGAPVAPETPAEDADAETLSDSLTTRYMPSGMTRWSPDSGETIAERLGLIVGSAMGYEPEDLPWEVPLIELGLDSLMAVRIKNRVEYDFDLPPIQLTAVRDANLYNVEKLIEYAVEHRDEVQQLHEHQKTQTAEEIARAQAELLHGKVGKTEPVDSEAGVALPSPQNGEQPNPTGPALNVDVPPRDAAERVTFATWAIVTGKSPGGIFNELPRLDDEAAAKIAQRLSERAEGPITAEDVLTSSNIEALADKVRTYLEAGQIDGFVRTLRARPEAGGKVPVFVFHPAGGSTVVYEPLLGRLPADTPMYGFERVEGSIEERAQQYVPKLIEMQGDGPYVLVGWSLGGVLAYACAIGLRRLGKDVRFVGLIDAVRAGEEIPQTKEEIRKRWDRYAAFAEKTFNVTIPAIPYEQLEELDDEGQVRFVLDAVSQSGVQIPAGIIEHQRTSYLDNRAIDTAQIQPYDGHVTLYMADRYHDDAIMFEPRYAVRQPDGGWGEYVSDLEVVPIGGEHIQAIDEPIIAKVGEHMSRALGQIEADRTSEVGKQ
UniProt P9WNZ1, whole entry: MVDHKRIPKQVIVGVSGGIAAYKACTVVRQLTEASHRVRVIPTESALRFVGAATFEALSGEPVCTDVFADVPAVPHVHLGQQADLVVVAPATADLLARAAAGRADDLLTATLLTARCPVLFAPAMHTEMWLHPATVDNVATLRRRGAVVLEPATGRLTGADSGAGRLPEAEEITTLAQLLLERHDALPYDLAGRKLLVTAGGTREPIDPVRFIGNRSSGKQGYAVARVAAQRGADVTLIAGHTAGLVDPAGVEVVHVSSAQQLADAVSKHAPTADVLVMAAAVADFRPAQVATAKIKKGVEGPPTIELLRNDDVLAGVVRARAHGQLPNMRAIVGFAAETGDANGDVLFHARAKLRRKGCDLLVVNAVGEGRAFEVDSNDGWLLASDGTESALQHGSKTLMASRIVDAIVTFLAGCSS
UniProt P9WFT3, whole entry: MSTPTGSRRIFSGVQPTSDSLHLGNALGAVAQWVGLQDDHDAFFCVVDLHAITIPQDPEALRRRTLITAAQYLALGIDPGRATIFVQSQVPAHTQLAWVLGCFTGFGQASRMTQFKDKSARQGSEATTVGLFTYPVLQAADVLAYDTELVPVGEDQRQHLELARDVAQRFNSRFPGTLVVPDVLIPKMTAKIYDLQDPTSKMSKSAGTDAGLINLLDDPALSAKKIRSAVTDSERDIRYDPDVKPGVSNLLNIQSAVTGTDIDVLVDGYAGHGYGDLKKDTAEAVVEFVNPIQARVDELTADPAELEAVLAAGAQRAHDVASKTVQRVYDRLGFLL
UniProt A4I591, 1-473: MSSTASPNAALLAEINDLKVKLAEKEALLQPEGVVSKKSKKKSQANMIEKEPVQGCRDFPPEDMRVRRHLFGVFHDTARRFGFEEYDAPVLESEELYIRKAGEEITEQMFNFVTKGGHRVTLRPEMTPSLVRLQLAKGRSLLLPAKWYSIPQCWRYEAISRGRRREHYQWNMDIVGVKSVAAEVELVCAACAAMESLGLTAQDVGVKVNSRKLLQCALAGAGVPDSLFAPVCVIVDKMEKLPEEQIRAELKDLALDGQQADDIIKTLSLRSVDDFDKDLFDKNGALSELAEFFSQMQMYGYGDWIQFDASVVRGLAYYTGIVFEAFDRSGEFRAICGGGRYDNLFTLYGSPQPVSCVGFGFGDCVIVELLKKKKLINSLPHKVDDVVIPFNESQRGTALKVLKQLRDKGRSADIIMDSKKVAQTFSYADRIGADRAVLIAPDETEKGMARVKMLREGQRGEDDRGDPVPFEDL
UniProt Q4DA54, 1-478: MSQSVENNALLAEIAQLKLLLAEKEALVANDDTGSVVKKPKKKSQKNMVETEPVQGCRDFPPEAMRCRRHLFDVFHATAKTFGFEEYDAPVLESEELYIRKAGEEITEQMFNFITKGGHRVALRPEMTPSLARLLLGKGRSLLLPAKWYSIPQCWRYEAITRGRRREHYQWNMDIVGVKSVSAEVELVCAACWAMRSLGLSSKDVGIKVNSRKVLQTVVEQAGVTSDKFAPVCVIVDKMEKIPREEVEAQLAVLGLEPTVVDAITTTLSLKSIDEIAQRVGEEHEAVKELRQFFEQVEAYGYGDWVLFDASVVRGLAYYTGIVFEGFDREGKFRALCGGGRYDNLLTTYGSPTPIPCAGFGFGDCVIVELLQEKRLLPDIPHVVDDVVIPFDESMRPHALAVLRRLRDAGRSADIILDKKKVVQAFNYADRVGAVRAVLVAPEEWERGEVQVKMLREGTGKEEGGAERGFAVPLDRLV

From ChEMBL document CHEMBL3988442, “University of Dundee, Small-Polar-MMV Screening Library” (2021).

Pks13 thioesterase: 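Enzyme assay of the thioesterase domain of polyketide synthase 13; the read-out is not stated. Target: Polyketide synthase Pks13, Mycobacterium tuberculosis (UniProt I6X8D2). Tested at 30 µM. Higher reads as stronger inhibition (inferred from which compounds were picked for retests). Of about 67,000 compounds tested this way, about 300 (0.46%) reached 50% or more in at least one test.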
Toxoplasma: 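Assay of Toxoplasma gondii numbers, read through their beta-galactosidase reporter with a colour substrate. Concentration: 10 µM. Higher reads as fewer parasites (inferred from which compounds were picked for retests). Size under these conditions: about 67,000 compounds, about 260 of them at 50% or above in at least one test.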
CoaBC: 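Enzyme assay of CoaBC with a phosphate dye (Biomol Green) read at 650 nm. Target: Coenzyme A biosynthesis protein CoaBC, Mycobacterium tuberculosis (UniProt P9WNZ1). Concentration: 30 µM. Higher reads as stronger inhibition, judged from the few compounds that gave an IC50. Most strong results did not repeat in a second test. Of about 67,000 compounds tested this way, about 40 (0.06%) reached 50% or more in at least one test.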
MtTrpRS: 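Enzyme assay of tryptophanyl-tRNA synthetase; the read-out is not stated. Target: Tryptophan-tRNA ligase, Mycobacterium tuberculosis (UniProt P9WFT3). Concentration: 10 µM. Direction is not recorded; retested compounds ran higher, which suggests that high means inhibition. About 65,000 compounds were tested under these conditions; 0.098% (about 64) showed 50% or more at least once.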
LiHisRS: 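Enzyme assay of histidyl-tRNA synthetase; the read-out is not stated. Target: Histidine-tRNA ligase, Leishmania infantum (UniProt A4I591). Concentration: 30 µM. The record gives no direction; compounds that gave an IC50 in retests scored well above the rest, so higher reads as stronger inhibition. The assay is labelled LdHisRS but filed under L. infantum. Of about 69,000 compounds tested this way, about 410 (0.6%) reached 50% or more in at least one test.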
TcHisRS: 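Enzyme assay of histidyl-tRNA synthetase; the read-out is not stated. Target: Histidine-tRNA ligase, Trypanosoma cruzi CL Brener (UniProt Q4DA54). Concentration: 30 µM. Higher reads as stronger inhibition (inferred: compounds with an IC50 in retests scored well above the rest). Of about 69,000 compounds tested this way, about 31 (0.045%) reached 50% or more in at least one test.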

Values are the deposited “Percent Effect”, in %.
The controls that fix the scale are not given in the record; negative values are as filed.
The compounds are a random part of those screened.
A dash means the value is not listed here; it may have been measured.

{"compound": "Cc1nnc(N2CCc3cncnc3C2)c(C#N)c1C", "Pks13 thioesterase": -17.37, "Toxoplasma": -16.06, "CoaBC": -6.561, "MtTrpRS": 12.06, "LiHisRS": 65.33, "TcHisRS": 2.646}
{"compound": "O=C(CCCn1cnnn1)N1CCC(c2ccncc2)CC1", "Pks13 thioesterase": -15.23, "Toxoplasma": 37.93, "CoaBC": -1.555, "MtTrpRS": -7.566, "LiHisRS": 3.279, "TcHisRS": 4.721}
{"compound": "CCc1cc(C(=O)N2CCC(Nc3ccc(C)nn3)CC2)sc1C", "Pks13 thioesterase": -28.5, "Toxoplasma": 4.692, "CoaBC": -0.6519, "MtTrpRS": -2.956, "LiHisRS": -12.16, "TcHisRS": -0.3774}
{"compound": "O=C(O)C(F)(F)F.[H][C@]12C[C@@H](CN(C)C)N(C(C)=O)[C@@]1([H])CCN(C(=O)c1occc1C)C2", "Toxoplasma": 3.957}
{"compound": "Cc1cnc(N2CCc3c(c(COc4cncnc4)nn3C)C2)nc1", "Pks13 thioesterase": -0.695, "Toxoplasma": -2.12, "CoaBC": 2.222, "LiHisRS": 0.9091, "TcHisRS": 2.116}
{"compound": "CCc1ccc(C(=O)N2CC(C(=O)NC(C)C)C3(CCOCC3)C2)cc1", "stereo": "stereo unspecified", "Pks13 thioesterase": -3.164, "Toxoplasma": -8.821, "CoaBC": 5.764, "MtTrpRS": 3.458, "LiHisRS": 20.51, "TcHisRS": 6.098}
{"compound": "CCc1nc(CN(C)C2CCN(CCc3cccs3)C2)no1", "stereo": "stereo unspecified", "Pks13 thioesterase": -15.82, "Toxoplasma": 5.71, "CoaBC": -12.33, "MtTrpRS": 1.42, "LiHisRS": 27.35, "TcHisRS": 4.274}
{"compound": "Cc1ccc(NCc2cncc3c2CCN(Cc2ccccn2)C3)nn1.Cl.Cl", "Toxoplasma": -23.34}
{"compound": "CNC(=O)CS(=O)(=O)Cc1coc(-c2cccc(F)c2)n1", "Pks13 thioesterase": -6.11, "Toxoplasma": 3.822, "CoaBC": -0.6889, "MtTrpRS": 2.414, "LiHisRS": 0, "TcHisRS": 5.128}
{"compound": "Cn1ccnc1CN1CCN(Cc2cc(-c3ccccc3)no2)CC1", "Pks13 thioesterase": 1.907, "Toxoplasma": -37.07, "CoaBC": 2.433, "MtTrpRS": 1.961, "LiHisRS": 11.11, "TcHisRS": 16.36}
{"compound": "CN(C)CC1CN(Cc2coc(-c3ccc(Cl)cc3)n2)CCO1", "stereo": "stereo unspecified", "Pks13 thioesterase": -14.96, "Toxoplasma": -13.33, "CoaBC": 6.234, "MtTrpRS": 18.15, "LiHisRS": 2.609, "TcHisRS": 2.817}
{"compound": "CCC(=O)Nc1ccc2c(c1)C1(CCOCC1)CN2CCF", "Pks13 thioesterase": 1.56, "CoaBC": 0, "LiHisRS": 22.52, "TcHisRS": 12.15}
{"compound": "CC1(C2CCN(CC(N)=O)CC2)CN(Cc2ccccc2)C(=O)O1", "stereo": "stereo unspecified", "Pks13 thioesterase": -13.86, "Toxoplasma": 7.966, "CoaBC": 2.101, "MtTrpRS": -1.882, "LiHisRS": 3.448, "TcHisRS": -3.042}

The last 2 entries again:

compound,Pks13 thioesterase,Toxoplasma,CoaBC,MtTrpRS,LiHisRS,TcHisRS
CCC(=O)Nc1ccc2c(c1)C1(CCOCC1)CN2CCF,1.56%,-,0%,-,22.52%,12.15%
CC1(C2CCN(CC(N)=O)CC2)CN(Cc2ccccc2)C(=O)O1 (stereo unspecified),-13.86%,7.966%,2.101%,-1.882%,3.448%,-3.042%